Experimental data taken from paper PMC12736018, “Stereoselective Cytotoxicity of Enantiopure 3,3-Dichloro-γ-lactams: Correlating In Vitro Activity with In Vivo Tolerability” (Molecules, 2025).

Assays:
Type in all cases: cell-based, human
[1] = test system: HeLa cells; assay: NRU cell viability assay, HeLa; conditions: for SI (3T3/HeLa): IC50 (3T3)/IC50 (HeLa); for SI (HaCaT/HeLa): IC50 (HaCaT)/IC50 (HeLa)
Protocol: (§1) The murine Swiss albino fibroblast (3T3), the immortal human keratinocyte (HaCaT), the squamous cell carcinoma (A431), the human epithelial carcinoma (HeLa) and the human breast adenocarcinoma (MCF-7) cell lines were sourced from Celltec UB (Barcelona, Spain). All cells were maintained and grown in DMEM medium (4.5 g/L glucose) supplemented with 10% (v/v) FBS, 2 mM L-glutamine, 100 U/mL penicillin and 100 μg/mL streptomycin at 37 °C, 5% CO2. Cells were routinely cultured in 75 cm^2 culture flasks and were trypsinized using trypsin-EDTA when the cells reached approximately 80%. Cell concentration in the resulting suspension was assessed using the trypan blue assay, which enables direct discrimination between viable (unstained) and non-viable (blue) cells.
(§2) T3 and HaCaT cells (1 × 10^5 cells/mL), along with A431, HeLa, and MCF-7 cells (5 × 10^4 cells/mL), were cultured at defined seeding densities in the 60 central wells of a 96-well plate. Cells were first incubated for 24 h under standard incubator conditions (5% CO2, 37 °C). After this period, the culture medium was removed, and the cells were incubated for an additional 24 h with their corresponding compound solutions (1 mg/mL) previously diluted in a minimum amount of DMF (dimethylformamide) and then in DMEM medium supplemented with 5% FBS (100 µL) at the required concentration range (20 to 250 µg/mL). Cell viability following exposure to the lactam derivatives was evaluated using two complementary assays: NRU and MTT.
(§3) The neutral red uptake (NRU) assay is based on the accumulation of dye in the lysosomes of viable cells. After the cells were incubated for 24 h with the corresponding systems, the medium was removed, and the solutions were incubated with the NR dye (Sigma-Aldrich, St. Louis, MO, USA) solution (50 µg/mL) dissolved in the medium, without FBS and without phenol red (Lonza, Verviers, Belgium), for 3 h. Cells were then washed with sterile PBS, followed by the addition of 100 µL of a solution containing 50% absolute ethanol and 1% acetic acid in distilled water to extract the dye. To promote the total dissolution of the dye, plates were placed in a microtiter-plate shaker for 5 min at room temperature. The absorbance of the resulting solutions was measured at 550 nm (Bio-Rad 550 microplate reader, Bio-Rad California, Hercules, CA, USA). Finally, the effect of each treatment was calculated as the percentage of dye uptake by viable cells relative to the control cells (cells without any treatment). Finally, the effect of each treatment was calculated as the percentage of dye retained by viable cells compared with untreated control cells.
(§4) The half-maximal inhibitory concentration (IC50) values for the different formulations, across cell lines and experimental endpoints, were obtained by fitting the concentration-dependent viability curves. […] These findings reflect the very low cytotoxicity of the compounds toward these cell lines.

[2] = test system: MCF-7 cells; assay: NRU cell viability assay, MCF-7; conditions: IC50 (3T3)/IC50 (MCF-7)
Protocol: as §1, §2
as §3, with “[…]” for “control cells.”

[3] = test system: MCF-7 cells; assay: MTT cell viability assay, MCF-7; conditions: for SI (3T3/MCF-7): IC50 (3T3)/IC50 (MCF-7); for SI (HaCaT/MCF-7): IC50 (HaCaT)/IC50 (MCF-7)
Protocol: as §1, §2
(§5) Only living cells can reduce the yellow tetrazolium salt 3-(4,5-dimethyl-2-thiazolyl)-2,5-diphenyltetrazolium bromide (MTT) to insoluble purple formazan crystals. After a 24 h incubation of the cells with their corresponding NPs, the medium was removed and 100 µL of MTT (Sigma-Aldrich, St. Louis, MO, USA) in PBS (5 mg/mL) diluted 1:10 in culture medium without phenol red and without FBS (Lonza, Verviers, Belgium) was added to the cells. After 3 h of incubation, the medium was removed. Thereafter, 100 µL of DMSO (Sigma-Aldrich, St. Louis, MO, USA) was added to each well to dissolve the purple formazan crystals. Agitation and absorbance measurements of the extracted solution were carried out under the same conditions described for the NRU assay. The effect of each treatment was then expressed as the percentage of tetrazolium salt reduction by viable cells relative to untreated controls.
as §4

[4] = test system: HeLa cells; assay: MTT cell viability assay, HeLa; conditions: for SI (3T3/HeLa): IC50 (3T3)/IC50 (HeLa); for SI (HaCaT/HeLa): IC50 (HaCaT)/IC50 (HeLa)
Protocol: as §1, §2, §5, §4

[5] = test system: A431 cells; assay: NRU cell viability assay, A431; conditions: for SI (3T3/A431): IC50 (3T3)/IC50 (A431); for SI (HaCaT/A431): IC50 (HaCaT)/IC50 (A431)
Protocol: as §1, §2, §3, §4

[6] = test system: A431 cells; assay: MTT cell viability assay, A431; conditions: for SI (3T3/A431): IC50 (3T3)/IC50 (A431); for SI (HaCaT/A431): IC50 (HaCaT)/IC50 (A431)
Protocol: as §1, §2, §5, §4

C[C@@H]1CN([C@@H](C)c2ccccc2)C(=O)C1(Cl)Cl [Compound 3, (R)-3,3-dichloro-4-methyl-1-((S)-1-phenylethyl)pyrrolidin-2-one]
SI (3T3/HeLa) [1]: 0.41
SI (HaCaT/HeLa) [1]: >1.56 ^a,epi-3,4
SI (3T3/MCF-7) [2]: 1.08 ^a,epi-3,4,epi-4
SI (3T3/MCF-7) [3]: 0.16
SI (HaCaT/MCF-7) [3]: 0.64
SI (3T3/HeLa) [4]: 0.16 ^epi-4
SI (HaCaT/HeLa) [4]: 0.67
SI (3T3/A431) [5]: 1.08 ^a
SI (HaCaT/A431) [5]: > 4.15 and >4.15 ^a,epi-3,4
SI (3T3/A431) [6]: 0.54
SI (HaCaT/A431) [6]: 2.19 ^epi-3,4,epi-4

C[C@H](c1ccccc1)N1C[C@H](C)C(Cl)(Cl)C1=O [Compound 4]
SI (3T3/HeLa) [1]: 2.23 and 2.23 ^a,3,epi-4
SI (HaCaT/HeLa) [1]: >3.23 ^a,epi-3
SI (3T3/MCF-7) [2]: <0.69
SI (3T3/MCF-7) [3]: 1.22 ^a,3,epi-3,epi-4
SI (HaCaT/MCF-7) [3]: 0.74
SI (3T3/HeLa) [4]: 1.01 ^3,epi-4
SI (HaCaT/HeLa) [4]: 0.61
SI (3T3/A431) [5]: 1.60 and 1.60 ^a,3
SI (HaCaT/A431) [5]: >2.32 ^a,epi-4
SI (3T3/A431) [6]: 0.58
SI (HaCaT/A431) [6]: 0.35

C[C@H](c1ccccc1)N1C[C@@H](C)C(Cl)(Cl)C1=O [epi-4]
SI (3T3/HeLa) [1]: <0.61
SI (3T3/MCF-7) [2]: <0.61
SI (3T3/MCF-7) [3]: <0.58 ^3
SI (3T3/HeLa) [4]: <0.58
SI (3T3/A431) [5]: 2.48 ^3,4,epi-3
SI (3T3/A431) ([5]; listed as compound epi-4): 2.48
SI (HaCaT/A431) [5]: >4.05 ^a
SI (HaCaT/A431) ([5]; listed as Compound epi-4): > 4.05
SI (3T3/A431) [6]: 0.82 ^epi-3
SI (HaCaT/A431) [6]: >1.41 ^4

C[C@@H](c1ccccc1)N1C[C@H](C)C(Cl)(Cl)C1=O [epi-3]
SI (3T3/HeLa) [1]: 0.36
SI (HaCaT/HeLa) [1]: >1.17
SI (3T3/MCF-7) [2]: <0.31 ^4,epi-4
SI (3T3/MCF-7) [3]: <0.27
SI (3T3/HeLa) [4]: <0.27 ^4
SI (3T3/A431) [5]: 0.63 ^3,4
SI (HaCaT/A431) [5]: >2.03 ^a,4,epi-4
SI (3T3/A431) [6]: 0.40
SI (HaCaT/A431) [6]: >1.47 ^4

Values joined by “and” are separate entries in the source; they are usually repeats but may differ in a detail not shown here. Equal entries are not always repeated. Marks after values point to notes of the source that are not given here.
